# Measurements published in PMC9804084, “Multiple drug transporters contribute to the brain transfer of levofloxacin” (CNS Neuroscience & Therapeutics, 2022).
# Assay: Microdialysis probe in vivo recovery of LVFX by reverse dialysis
# Set-up: species or system rat
# Conditions: 2 μl/min
smiles,measurement,setting,value
"C[C@H]1COc2c(N3CCN(C)CC3)c(F)cc3c(=O)c(C(=O)O)cn1c23 [LVFX, Levofloxacin]",mean in vivo recovery (R dial),"probe in blood, 5 μg/ml LVFX in ACD solution",32.31 ± 5.93%
same,mean in vivo recovery (R dial),"probe in hippocampus ECF, 0.5 μg/ml LVFX in ACSF",4.98 ± 0.42%
same,mean in vivo recovery (R dial),"probe in lateral ventricle CSF, 0.5 μg/ml LVFX in ACSF",4.17 ± 0.43%
